# Assay results: PubChem BioAssay AID248 (DTP/NCI, 2004)
# The list does not hold the whole screen: it is rich in T/C values a quarter to a half above the control, in often repeated tests (any T/C) and in doses without a T/C. Further doses and runs are listed elsewhere. T/C gives the treated animals as a percentage of the vehicle group. Some doses have a count of surviving animals in place of a T/C: the source holds a T/C of zero for them, seemingly a mark for toxic or unscored doses. Some doses without a T/C left all or most animals alive at the check, yet need not have been tolerated: survival well below the control is almost never listed, so the zero probably covers shortened survival too. Counts of survivors are from the toxicity check (mostly the fifth day) where no day follows; animals may have died later. Schedules are NCI's codes, taken here to give the interval after Q, in days (D) or hours (H), and the number of doses after X. Marks such as (2×) count equal records among those shown. Some schedules carry Z or #; the key to these is not given. For survival time, the PubChem record calls one and a half times the control and up active, and a quarter to a half above the control has no call in these data; cut-offs in other NCI protocols can differ. Some entries hold several experiments; the results are listed from low to high.
# System: L1210 leukemia ip in BDF1 mice, survival T/C
# Experiment: NCI In Vivo Anticancer Drug Screen. Data for tumor model L1210 Leukemia (intraperitoneal) in B6D2F1 (BDF1) mice
# Details: T/C endpoint: mean survival time, higher T/C = longer survival
# [1] = dose: 400.0 mg/kg/injection, schedule: Q01DX001 (ip), vehicle: carboxymethylcellulose (CMC)
smiles,measurement,setting,value
CC(Oc1nc2c(c(=O)n(C)c(=O)n2C)n1C)C1CCCC1 (configuration not stated),survivor count,"dose: 200.0 mg/kg/injection, schedule: Q01DX001 (ip), vehicle: other",1 of 4
same,survivor count,"dose: 400.0 mg/kg/injection, schedule: Q01DX001 (ip), vehicle: other",0 of 4
COc1ccc(N=NNc2ccc(OC)cc2)cc1,survivor count,"dose: 50.0 mg/kg/injection, schedule: Q01DX009 (ip), vehicle: saline with Tween-80",5 of 6 (2×)
same,survivor count,"dose: 100.0 mg/kg/injection, schedule: Q01DX009 (ip), vehicle: saline with Tween-80",1 of 6
same,survivor count,"dose: 100.0 mg/kg/injection, schedule: Q04DX003 (ip), vehicle: saline with Tween-80",6 of 6
same,survivor count,"dose: 200.0 mg/kg/injection, schedule: Q04DX003 (ip), vehicle: saline with Tween-80",0 of 6
same,survivor count,"dose: 400.0 mg/kg/injection, schedule: Q04DX003 (ip), vehicle: saline with Tween-80",1 of 6
O=C(Nc1ccc(NC(=O)c2ccc(C3=NCCCN3)cc2)cc1)Nc1ccc(C2=NCCCN2)cc1,T/C,"dose: 3.0 mg/kg/injection, schedule: Q01DX Z (ip), vehicle: carboxymethylcellulose (CMC)",136 % of control
same,T/C,"dose: 5.7 mg/kg/injection, schedule: Q01DX Z (ip), vehicle: carboxymethylcellulose (CMC)",129 % of control
same,T/C,"dose: 10.0 mg/kg/injection, schedule: Q01DX Z (ip), vehicle: carboxymethylcellulose (CMC)",144 % of control
same,T/C,"dose: 10.5 mg/kg/injection, schedule: Q01DX Z (ip), vehicle: carboxymethylcellulose (CMC)",137 % of control
same,survivor count,"dose: 42.0 mg/kg/injection, schedule: Q01DX Z (ip), vehicle: carboxymethylcellulose (CMC)",6 of 6
Cn1nc(SCc2ccccc2)c(=O)n(C(c2ccccc2)c2ccccc2)c1=O,survivor count,[1],4 of 4
CC(C)[CH2][Sn](=[O])[CH2]C(C)C,survivor count,"dose: 25.0 mg/kg/injection, schedule: Q04DX002 (ip), vehicle: saline with Tween-80",0 of 3
same,survivor count,"dose: 100.0 mg/kg/injection, schedule: Q04DX002 (ip), vehicle: saline with Tween-80",0 of 3
same,survivor count,"dose: 200.0 mg/kg/injection, schedule: Q04DX002 (ip), vehicle: saline with Tween-80",0 of 3
same,survivor count,"dose: 400.0 mg/kg/injection, schedule: Q04DX002 (ip), vehicle: saline with Tween-80",0 of 3
NC(=S)N/N=C1/CCc2ccccc21,survivor count,"dose: 200.0 mg/kg/injection, schedule: Q01DX001 (ip), vehicle: carboxymethylcellulose (CMC)",0 of 4
same,survivor count,[1],0 of 4
COc1cccc2c1C(=O)c1c(O)c3c(c(O)c1C2=O)C[C@@](O)(/C(C)=N/NC(N)=S)C[C@@H]3OC1CC(N)C(O)C(C)O1 (some centres not stated),T/C,"dose: 4.0 mg/kg/injection, schedule: Q01DX009 (ip), vehicle: water",131 and 134 % of control
same,T/C,"dose: 8.0 mg/kg/injection, schedule: Q01DX009 (ip), vehicle: water",133 and 134 % of control
same,T/C,"dose: 16.0 mg/kg/injection, schedule: Q01DX009 (ip), vehicle: water",138 and 142 % of control
same,T/C,"dose: 16.0 mg/kg/injection, schedule: Q04DX003 (ip), vehicle: water, evaluated on day 16",132 % of control
same,T/C,"dose: 16.0 mg/kg/injection, schedule: Q04DX003 (ip), vehicle: water, evaluated on day 20",129 % of control
O=C(/C=C(\c1ccccc1)N1CC1)c1ccccc1,survivor count,"dose: 400.0 mg/kg/injection, schedule: Q04DX003 (ip), vehicle: Klucel (hydroxypropylcellulose) (HPC)",1 of 6
C=CCN(CC=C)P(=O)(N1CC1C)N1CC1C (configuration not stated),T/C,"dose: 1.8 mg/kg/injection, schedule: Q01DX009 (ip), vehicle: saline",143 % of control
same,T/C,"dose: 5.0 mg/kg/injection, schedule: Q01DX009 (ip), vehicle: saline",127 % of control
CCCCNC(=S)NNC(=O)c1ccncc1,survivor count,"dose: 100.0 mg/kg/injection, schedule: Q04DX002 (ip), vehicle: Klucel (hydroxypropylcellulose) (HPC)",3 of 3
COc1ccc(C2C=C(C)Oc3c2c(=O)oc2ccccc32)cc1OC (configuration not stated),survivor count,"dose: 100.0 mg/kg/injection, schedule: Q01DX009 (ip), vehicle: water",1 of 6
same,survivor count,"dose: 200.0 mg/kg/injection, schedule: Q01DX009 (ip), vehicle: water",1 of 6
same,survivor count,"dose: 400.0 mg/kg/injection, schedule: Q01DX009 (ip), vehicle: water",0 of 6
COc1cc(C(=O)NCC(=O)O)cc(OC)c1OC,survivor count,"dose: 400.0 mg/kg/injection, schedule: Q01DX009 (ip), vehicle: saline",6 of 6
